Source: PubChem BioAssay AID1439 (NMMLSC, 2008)
Among all 220,000 compounds or so, about 770 (0.35%) were called active. This list was built around the results that the source calls inconclusive (neither active nor inactive); the mix of calls is not that of the screen. No stated cut-off is given here; in the data, active means binding response below about 49% or above about 150%; inconclusive means no clear call, values can overlap the other calls; inactive means in between.

Sequences of proteins named here, by UniProt entry; tags and fusion partners are left off.
UniProt P09471, whole entry, looked up: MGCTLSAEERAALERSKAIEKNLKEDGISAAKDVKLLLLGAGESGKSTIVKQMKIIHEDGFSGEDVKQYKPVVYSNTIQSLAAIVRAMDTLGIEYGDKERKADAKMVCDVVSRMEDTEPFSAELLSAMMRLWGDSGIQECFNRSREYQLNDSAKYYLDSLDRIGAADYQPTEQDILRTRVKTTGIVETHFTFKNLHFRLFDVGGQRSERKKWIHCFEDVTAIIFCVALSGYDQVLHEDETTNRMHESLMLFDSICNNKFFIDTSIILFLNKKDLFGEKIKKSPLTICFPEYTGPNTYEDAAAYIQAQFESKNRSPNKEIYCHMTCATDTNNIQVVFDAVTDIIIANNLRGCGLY

What follows are compounds tested against Guanine nucleotide-binding protein G(o) subunit alpha (Homo sapiens) (UniProt P09471) (assay: compounds changing RGS7 association with Galphao – biochemical, multiplexed bead flow cytometry, primary screen (AID 1439;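 further: fluorescent Galphao held in activated GDP-AlF4 state binding bead-coupled RGS7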)). Details: at 10 µM, actives lie on both sides.
In the case of COc1ccc(C(c2c(O)c3ccccc3oc2=O)c2c(C)n(C)n(-c3ccccc3)c2=O)cc1 (configuration not stated), the binding response (% of control) was inactive: 93.8%.
In the case of CCC(=NCc1ccco1)c1c(O)n(-c2ccccc2C)c(=O)[nH]c1=O, the binding response (% of control) was inconclusive: 129%.
In the case of CCOC(=O)C(O)(c1ccc(NC(=O)c2ccc(Cl)c(Cl)c2)cc1)C(F)(F)F (configuration not stated), the binding response (% of control) was inconclusive: 70.5%.
In the case of Cc1cc(Cl)nc(N)n1, the binding response (% of control) was inactive: 112%.
For NC(=O)C1CCN(/C=C2\C(=O)NC(=O)N(Cc3ccco3)C2=O)CC1, the binding response (% of control) was inconclusive: 69.6%.
For O=C(Cc1ccccc1)N1CCN(C/C=C/c2ccccc2)CC1, the binding response (% of control) was active: 7.9%.
CC1(C)CC(CCNCc2ccc3c(c2)OCO3)(Cc2ccccc2)CCO1 (configuration not stated) was tested, and the binding response (% of control) was inactive: 90.5%.
With O=C1NC(=O)N(CCC2=CCCCC2)C(=O)/C1=C/c1cccs1 the binding response (% of control) was inconclusive: -961%.
O=C(CN1CCN(c2ccccc2F)CC1)Nc1cccnc1Cl was tested, and the binding response (% of control) was inconclusive: 82.5%.
In the case of O=C1NC(=O)N(Cc2ccco2)C(=O)/C1=C\c1cccn1CCOc1ccccc1, the binding response (% of control) was inconclusive: 91%.
CC/C(=N\Nc1ccccc1)c1c(O)n(-c2ccccc2)c(=O)[nH]c1=O was tested, and the binding response (% of control) was inconclusive: 79.7%.
In the case of COc1ccc(OCC#CCN2CCCCCC2)cc1, the binding response (% of control) was inconclusive: 90.5%.
For CC(=O)Nc1ccc(C(=O)OCC(=O)Nc2ccc(Cl)cc2C(=O)c2ccccc2)cc1, the binding response (% of control) was inactive: 103%.
In the case of COC(=O)C1=Nc2ccccc2/C1=C\c1c(O)n(C)c(=O)n(C)c1=O, the binding response (% of control) was inconclusive: 166%.
In the case of CCC(=NCCc1ccccc1)c1c(O)n(C)c(=O)n(C)c1=O, the binding response (% of control) was inconclusive: 176%.
CN(C)c1ccc(/C=C/c2cc[n+](C)c3ccccc23)cc1 was tested, and the binding response (% of control) was inconclusive: 97.2%.
For O=c1[nH]c(=S)n(Cc2ccc(F)cc2)c(O)c1C=NCCCn1ccnc1, the binding response (% of control) was inconclusive: 85.3%.
With Cc1ccc2c(c1)C1CN(C)CCC1N2C(=O)CCCN1C(=O)c2cccc3cccc(c23)C1=O (configuration not stated) the binding response (% of control) was inconclusive: 74.6%.
With CC(C)n1c(O)c(C=NCc2cccnc2)c(=O)[nH]c1=S the binding response (% of control) was inconclusive: 147%.
For CN1C2CCC1/C(=C/c1ccccn1)C(=O)/C2=C\c1ccccn1, the binding response (% of control) was inactive: 93.4%.
In the case of Cn1cccc1/C=C1/C(=O)NC(=O)N(C(C)(C)C)C1=O, the binding response (% of control) was inconclusive: 108%.
O=C1NC(=O)N(c2ccccc2)C(=O)/C1=C\C=C\c1ccccc1 was tested, and the binding response (% of control) was inconclusive: 113%.
In the case of CCOc1ccc(N=Cc2c(O)n(-c3ccc(C)c(C)c3)c(=O)[nH]c2=O)cc1, the binding response (% of control) was inconclusive: 82%.
With O=[N+]([O-])c1ccc(NCc2ccccc2)c2nonc12 the binding response (% of control) was inconclusive: 106%.
For CCC(C)NC(=O)CN1C(=O)CN=C(c2ccccc2)c2ccccc21 (configuration not stated), the binding response (% of control) was inactive: 96.7%.
Cc1cc(C)n(-c2ccc(NN=C(C#N)C#N)cc2)n1 was tested, and the binding response (% of control) was inconclusive: 74.8%.
For CC(NC1=NCCS1)c1ccccc1 (configuration not stated), the binding response (% of control) was inactive: 99.4%.
With CCOP(=O)(OCC)C(O)c1cccnc1 (configuration not stated) the binding response (% of control) was inconclusive: 36.2%.
O=C(Nc1ccccc1)c1c(O)c2c(n(Cc3ccco3)c1=O)CCCC2 was tested, and the binding response (% of control) was inconclusive: 111%.
For O=C1NC(=O)N(c2ccccc2)C(=O)/C1=C\c1ccccc1[N+](=O)[O-], the binding response (% of control) was inconclusive: 63.2%.
In the case of CC12CCCCC1=NC(c1ccc(Br)cc1)N2O (configuration not stated), the binding response (% of control) was inactive: 103%.
For CC(/C=C(\C)Nc1ccccc1)=Nc1ccccc1, the binding response (% of control) was inconclusive: 129%.
In the case of COc1ccc(Cn2c(O)c(C=NCCN3CCOCC3)c(=O)[nH]c2=O)cc1, the binding response (% of control) was inactive: 105%.
For C=C1C(=O)O[C@@H]2C[C@@H](C)[C@@H]3C4OC4C(=O)[C@@]3(C)[C@@H](O)[C@H]12 (some centres not stated), the binding response (% of control) was inconclusive: 87.1%.
In the case of O=C(Nc1cccc(Cl)c1)OC1CN2CCC1CC2 (configuration not stated), the binding response (% of control) was inconclusive: 125%.
O=C1N(c2ccc(Cl)cc2)C(c2cccnc2)N2CCCN12 (configuration not stated) was tested, and the binding response (% of control) was inactive: 101%.
In the case of CCN1CCC2(CC1)NC(=O)c1ccccc1O2, the binding response (% of control) was inactive: 92.2%.
COc1ccc(N2C(=O)/C(=C/c3cccs3)C(=O)NC2=S)cc1 was tested, and the binding response (% of control) was inconclusive: 33.5%.
For O=C(Nc1ccc(C(F)(F)F)cc1)OC1CN2CCC1CC2 (configuration not stated), the binding response (% of control) was inconclusive: 21.2%.
CC(Cc1ccccc1)[n+]1cc(/N=C(\[O-])Nc2ccccc2)on1 (configuration not stated) was tested, and the binding response (% of control) was inactive: 110%.
With Cc1ccc(C)c(-n2c(C)nc3ccccc3c2=O)c1 the binding response (% of control) was inconclusive: 63.6%.
For CN(C)c1ccc(/C=C2/C(=N\O)C3CCN2CC3)cc1, the binding response (% of control) was inconclusive: 114%.
For O=C1NC(=O)N(c2ccc(F)cc2)C(=O)/C1=C/c1ccsc1, the binding response (% of control) was inconclusive: 70%.
With NC(=O)c1ccc(N=Cc2c(O)n(Cc3ccco3)c(=O)[nH]c2=O)cc1 the binding response (% of control) was inconclusive: 56.5%.
With CCn1cc(C(=O)N2CCOCC2)c2ccccc21 the binding response (% of control) was inconclusive: 124%.
COc1ccc(CN2C(=O)NC(=O)/C(=C/c3ccc(OC)c(OC)c3OC)C2=O)cc1 was tested, and the binding response (% of control) was inconclusive: -196%.
For O=C(NC1CCCCC1)Oc1cc2oc(=O)sc2cc1Cl, the binding response (% of control) was inconclusive: 95.2%.
In the case of CCC(C)n1c(O)c(C=NCCc2ccccc2)c(=O)[nH]c1=S (configuration not stated), the binding response (% of control) was inconclusive: 93.1%.
O=[N+]([O-])c1cccc2c([As](=O)(O)O)cccc12 was tested, and the binding response (% of control) was inconclusive: -6.17%.
With Cc1ccc(NC(=S)NCCc2cnc[nH]2)cc1C the binding response (% of control) was inconclusive: 122%.
For CC/C(=N\Nc1ccccc1)c1c(O)[nH]c(=O)[nH]c1=O, the binding response (% of control) was inconclusive: -6.49%.
For CC(=O)NC(Cc1ccc(N(CCCl)CCCl)cc1)C(=O)NC(CC(C)C)C(=O)O (configuration not stated), the binding response (% of control) was inactive: 96.3%.
For CCC(=NCc1cc(OC)cc(OC)c1)c1c(O)n(C2CCCCC2)c(=O)[nH]c1=O, the binding response (% of control) was inconclusive: 2.48%.
In the case of c1ccc2c(c1)Sc1ccccc1N2CC1CN2CCC1CC2 (configuration not stated), the binding response (% of control) was inconclusive: 157%.
In the case of CNC(=O)Oc1ccc(N(C)C)cc1C(C)C, the binding response (% of control) was inconclusive: 102%.
With Cn1cc(C(=O)N2CCCCC2)c2ccccc21 the binding response (% of control) was inconclusive: 93.7%.
With O=c1[nH]c(CN2CC=C(c3ccccc3)CC2)nc2scc(-c3ccccc3)c12 the binding response (% of control) was inconclusive: 243%.
CC(Cc1cccs1)NCc1ccccc1 (configuration not stated) was tested, and the binding response (% of control) was inconclusive: 113%.
With CN(N)N=Nc1nc2c([nH]1)c(=O)n(C)c(=O)n2C the binding response (% of control) was inconclusive: 153%.
For COc1cc(O)c(C(=O)O)c(-c2cc(O)c(O)cc2C)c1, the binding response (% of control) was inconclusive: 22.7%.
With CSc1ccc(CNC(C)C(O)c2ccccc2)cc1 (configuration not stated) the binding response (% of control) was inconclusive: 97.7%.
For CCOP(=O)(OCC)C(Cc1ccccc1)NC(C)=O (configuration not stated), the binding response (% of control) was inconclusive: 91.6%.
CC(C)N1CCN(Cc2cc3c(cc2Cl)OCO3)CC1CCO (configuration not stated) was tested, and the binding response (% of control) was inconclusive: 128%.
For CCCC[N+]12CCC(CC1)C(C(O)(c1ccccc1)c1ccccc1)C2 (configuration not stated), the binding response (% of control) was inconclusive: 45.7%.
With C=CCn1c(O)c(C(CC)=NC(C)c2ccccc2)c(=O)[nH]c1=O (configuration not stated) the binding response (% of control) was inactive: 99.8%.
For O=C(Cc1ccccc1[N+](=O)[O-])N1CCN(Cc2ccc3c(c2)OCO3)CC1, the binding response (% of control) was inconclusive: 118%.
For COc1cc(CN=C(C)c2c(O)n(C3CCCCC3)c(=O)[nH]c2=O)cc(OC)c1, the binding response (% of control) was inconclusive: 99.8%.
With CC12CN3CCN(C1)CC(C)(C3)C2=NN the binding response (% of control) was inconclusive: 229%.
With CNC(=O)O/N=C(\N)Cc1csc2ccccc12 the binding response (% of control) was inconclusive: 107%.
CC(=O)CC(=O)C1C(=O)N(C)C(=O)N(C)C1=O was tested, and the binding response (% of control) was inactive: 97.9%.
In the case of Cc1ccc(-c2nn(Cc3ccccc3)cc2C(=O)O)cc1, the binding response (% of control) was inconclusive: 91.8%.
For CSc1ncc(CN2CCCC(C(=O)c3ccccc3SC)C2)cn1 (configuration not stated), the binding response (% of control) was inconclusive: 94.6%.
Cc1ncc([N+](=O)[O-])n1CCOC(N)=O was tested, and the binding response (% of control) was inconclusive: 86.3%.
O=c1[nH]c(O)c(C=NC2CCCCC2)c(=O)[nH]1 was tested, and the binding response (% of control) was inconclusive: 70.8%.
With COc1ccc(CCn2c(O)c(C=Nc3ccccc3F)c(=O)[nH]c2=O)cc1OC the binding response (% of control) was inconclusive: 85.9%.
With CC/C(=N\Nc1ccccc1)c1c(O)n(-c2ccc(OC)cc2)c(=O)[nH]c1=O the binding response (% of control) was inconclusive: 175%.
With CC12CC[C@H]3[C@@H](CCC4(O)C[C@H](O)CCC34/C=N/NC(=O)Cc3ccccc3)C1(O)CCC2C1=CC(=O)OC1 (some centres not stated) the binding response (% of control) was inconclusive: 92.9%.
CCOc1ccc(-c2cc(C)[n+](CCN3CCOCC3)c(-c3ccc(OCC)cc3)c2)cc1 was tested, and the binding response (% of control) was inconclusive: 57.6%.
In the case of CC(Cc1ccccc1)NC(N)=O (configuration not stated), the binding response (% of control) was inconclusive: 116%.
O=C(c1ccc(Cl)cc1)C1CCCN(Cc2ccc3ncccc3c2)C1 (configuration not stated) was tested, and the binding response (% of control) was inactive: 106%.
In the case of Oc1ccccc1/C=N/NP(=S)(c1ccccc1)c1ccccc1, the binding response (% of control) was inconclusive: 104%.
In the case of CC(Cc1ccc(O)cc1)NCC(O)c1cc(O)cc(O)c1 (configuration not stated), the binding response (% of control) was inconclusive: 100%.
For CCCn1cc2c3c(cccc31)C1CC(C)CN(C)C1C2 (configuration not stated), the binding response (% of control) was inconclusive: 94%.
With CCCn1cc(C(=O)O)cn1 the binding response (% of control) was inconclusive: 107%.
CCCCCCNC(=O)N[C@H](Cc1ccc(O)cc1)C(=O)NCCC[C@H]1CN2C(=NC[C@H]2CCC)N1CC1CCC1 was tested, and the binding response (% of control) was inconclusive: 71.5%.
For CC(=O)N1N=C(c2c(O)n(C)c(=O)n(C)c2=O)CC1c1ccccc1 (configuration not stated), the binding response (% of control) was inconclusive: 599%.
CC(Cl)(Cl)/C(=N/P(=S)(N1CCOCC1)N1CCOCC1)N1CCOCC1 was tested, and the binding response (% of control) was inconclusive: 97.8%.
With CC12CCC3C(CC=C4CC(O)CCC43C)C1C/C(=C\N1CCCC1)C2=O (configuration not stated) the binding response (% of control) was inconclusive: 83.2%.
In the case of C/C(=N\NP(=S)(c1ccccc1)c1ccccc1)c1ccc(O)cc1O, the binding response (% of control) was inconclusive: 112%.
For COCCN1C(=O)/C(=C/c2c(OC)cc(OC)cc2OC)C(=O)N(c2ccccc2)C1=O, the binding response (% of control) was inconclusive: 52.8%.
For O=c1[nH]c(=S)n(Cc2ccc(F)cc2)c(O)c1/C=N/N1CCCCC1, the binding response (% of control) was inactive: 112%.
Cc1cccn2c(=O)c3c(nc12)N1CCCCC1C1(C3)C(=O)N(C)C(=O)N(C)C1=O (configuration not stated) was tested, and the binding response (% of control) was inconclusive: 51.3%.
